These are yes or no findings as the source states them, for the method shown. Some results given as binding are weak or reduced against the parent protein; the word gives no strength.
Key:
[1] = biological target: Cdc42HsL61 (F37A) effector mutant, preloaded with [gamma-32P]GTP (UniProt P60953); assay: overlay assay, GTP loaded Cdc42Hs mutant on blotted protein
[2] = biological target: Cdc42HsL61 (constitutively active), preloaded with [gamma-32P]GTP (UniProt P60953); assay: as above

Amino acid sequences for entries named in this document (tags omitted). A change or cut given only in a name is not applied to a line headed by its entry. Chains listed by the source or under a name are the forms on record and can include a tag or linker.
UniProt P60953: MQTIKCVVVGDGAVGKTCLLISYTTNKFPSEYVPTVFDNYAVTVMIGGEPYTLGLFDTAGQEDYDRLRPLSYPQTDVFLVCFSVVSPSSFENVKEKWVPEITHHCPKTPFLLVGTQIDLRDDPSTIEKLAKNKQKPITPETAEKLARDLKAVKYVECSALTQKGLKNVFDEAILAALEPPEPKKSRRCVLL
Cdc42HsL61 (F37A) effector mutant, preloaded with [gamma-32P]GTP (P60953, form named): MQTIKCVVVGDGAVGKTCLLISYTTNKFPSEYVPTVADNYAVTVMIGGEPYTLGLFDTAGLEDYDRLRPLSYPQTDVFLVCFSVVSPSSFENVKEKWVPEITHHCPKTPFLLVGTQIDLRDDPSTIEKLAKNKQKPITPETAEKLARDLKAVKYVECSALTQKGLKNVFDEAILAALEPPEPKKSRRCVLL
Cdc42HsL61 (constitutively active), preloaded with [gamma-32P]GTP (P60953, form named): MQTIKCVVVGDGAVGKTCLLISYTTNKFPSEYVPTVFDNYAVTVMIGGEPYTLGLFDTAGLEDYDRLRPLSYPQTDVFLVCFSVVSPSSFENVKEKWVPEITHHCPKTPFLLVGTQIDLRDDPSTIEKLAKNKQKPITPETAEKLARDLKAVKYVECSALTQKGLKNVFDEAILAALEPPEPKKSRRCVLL
UniProt P42768: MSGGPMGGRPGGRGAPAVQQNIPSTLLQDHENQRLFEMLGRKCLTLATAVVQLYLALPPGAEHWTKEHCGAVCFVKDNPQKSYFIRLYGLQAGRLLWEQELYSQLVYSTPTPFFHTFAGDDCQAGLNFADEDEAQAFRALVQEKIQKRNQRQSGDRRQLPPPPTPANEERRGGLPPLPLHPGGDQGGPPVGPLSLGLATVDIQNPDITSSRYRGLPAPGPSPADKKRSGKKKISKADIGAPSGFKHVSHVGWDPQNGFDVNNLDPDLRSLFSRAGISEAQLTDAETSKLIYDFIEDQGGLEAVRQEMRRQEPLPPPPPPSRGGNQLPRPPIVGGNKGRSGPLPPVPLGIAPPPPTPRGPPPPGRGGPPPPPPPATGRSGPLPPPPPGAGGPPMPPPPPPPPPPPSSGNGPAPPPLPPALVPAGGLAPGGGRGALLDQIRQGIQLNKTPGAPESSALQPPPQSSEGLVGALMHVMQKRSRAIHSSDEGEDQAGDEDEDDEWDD

In the case of “Recombinant WASP (from UniProt P42768 1-502)”, the binding [1] is reported as “binds” and the binding [2] is reported as “binds”.

From patent publication US20040091992A1
